Assay: general procedure: solution-phase peptide synthesis; dehydro azlactone ring opening; isobutyl chloroformate/N-methylmorpholine; DCC/H

Substance | step yield (late stage modification step) [%] | step yield (coupling step) [%] | also measured
H.Pro-ΔPhe-His-Leu.OH.2HBr | 69 |  | 
S-trityl-3-Mercaptopropanoyl-Prolyl-Δ-Phenylalanyl-Histidyl-Leucine.OH |  | 68 | 
BOC-DAla-Gly-ΔPhe-Met NH2 |  | 54 | 
N-carbobenzoxy-Gly-Gly-Phe-MetNH2 |  | 60 | 
Z-Pro-ΔPhe-His-Leu.OCH3 |  |  | step yield (coupling step, run 1): 84%; step yield (coupling step, run 2): 76%
Z-Pro-ΔPhe-His-Leu.OH | 64 | 81 | 

From patent US4283328A (Research Corporation, priority 1979, dated 1981)
